Assay results reported in US5696115A, “Method for treating nicotine withdrawal” (Eli Lilly and Company, priority 1995, dated 1997).

Test system: 5-HT1C receptor
Conditions: anhydrous Form I compound

With `Cc1cc2c(s1)Nc1ccccc1N=C2N1CCN(C)CC1` [anhydrous Form I, 2-methyl-4-(4-methyl-1-piperazinyl)-10H-thieno[2,3-b][1,5]-benzodiazepine] the “activity at 5-HT1C receptor” value was “active”.
